Results are given in words; binding and its absence hold for the method and conditions named. In cells and extracts the contact can be indirect. Some binding calls cover weakened binding; strength is not graded here. Blank lines part the entries; values can stand above or below the substance they belong to.
Assays:
[1] = target: ERa (UniProt P03372); assay: co-immunoprecipitation of ERa and FLAG-PCAF from COS-7 cells also expressing HA-BRCA1 S988E
[2] = target: ERa (UniProt P03372); assay: co-immunoprecipitation from irradiated (15 Gy) COS-7 cells also expressing wild type HA-BRCA1
[3] = target: ERa (UniProt P03372); assay: co-immunoprecipitation of ERa and FLAG-PCAF from COS-7 cells also expressing HA-BRCA1 [S988A], irradiated or not
[4] = target: ERa (UniProt P03372); assay: co-immunoprecipitation from unirradiated COS-7 cells also expressing wild type HA-BRCA1
[5] = target: HA-BRCA1 [S988A] (human) (UniProt P38398); assay: co-immunoprecipitation with anti-HA from irradiated (10 Gy) MCF-7 cells
[6] = target: HA-BRCA1 [S988A] (human) (UniProt P38398); assay: co-immunoprecipitation with anti-HA from unirradiated MCF-7 cells
[7] = target: BRCA1 fused to the epitope tag myc (human) (UniProt P38398); assay: co-immunoprecipitation from irradiated MCF-7 cells
[8] = target: HA-BRCA1 [S988A] (human) (UniProt P38398); assay: co-immunoprecipitation from unirradiated and irradiated MCF-7 cells
[9] = target: HA-BRCA1 [S988E] (human) (UniProt P38398); assay: as above
[10] = target: BRCA1 fused to the epitope tag myc (human) (UniProt P38398); assay: co-immunoprecipitation from unirradiated MCF-7 cells

The chains behind the UniProt entries cited, without tags or fusion partners. Where a name states a change or a piece, a line headed by the entry shows the natural chain unless it says otherwise. A line that says so, or that is headed by a name, gives the form on record, which may keep a tag or linker.
UniProt P03372: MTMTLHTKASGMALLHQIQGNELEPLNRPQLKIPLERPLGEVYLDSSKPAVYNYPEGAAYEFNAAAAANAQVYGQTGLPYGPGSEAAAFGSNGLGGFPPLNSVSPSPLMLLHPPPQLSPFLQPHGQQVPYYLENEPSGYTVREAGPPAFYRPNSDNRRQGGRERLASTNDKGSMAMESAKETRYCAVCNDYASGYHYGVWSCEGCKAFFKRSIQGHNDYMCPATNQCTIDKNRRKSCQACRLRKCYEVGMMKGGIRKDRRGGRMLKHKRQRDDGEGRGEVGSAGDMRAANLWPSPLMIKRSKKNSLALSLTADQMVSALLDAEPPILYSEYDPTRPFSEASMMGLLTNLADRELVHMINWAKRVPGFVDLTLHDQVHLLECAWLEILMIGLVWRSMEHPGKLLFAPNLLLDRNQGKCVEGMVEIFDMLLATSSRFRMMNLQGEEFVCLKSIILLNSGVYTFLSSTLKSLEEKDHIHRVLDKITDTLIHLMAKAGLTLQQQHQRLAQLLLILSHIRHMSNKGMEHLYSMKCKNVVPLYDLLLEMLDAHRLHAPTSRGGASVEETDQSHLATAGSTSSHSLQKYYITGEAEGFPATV
UniProt Q92831: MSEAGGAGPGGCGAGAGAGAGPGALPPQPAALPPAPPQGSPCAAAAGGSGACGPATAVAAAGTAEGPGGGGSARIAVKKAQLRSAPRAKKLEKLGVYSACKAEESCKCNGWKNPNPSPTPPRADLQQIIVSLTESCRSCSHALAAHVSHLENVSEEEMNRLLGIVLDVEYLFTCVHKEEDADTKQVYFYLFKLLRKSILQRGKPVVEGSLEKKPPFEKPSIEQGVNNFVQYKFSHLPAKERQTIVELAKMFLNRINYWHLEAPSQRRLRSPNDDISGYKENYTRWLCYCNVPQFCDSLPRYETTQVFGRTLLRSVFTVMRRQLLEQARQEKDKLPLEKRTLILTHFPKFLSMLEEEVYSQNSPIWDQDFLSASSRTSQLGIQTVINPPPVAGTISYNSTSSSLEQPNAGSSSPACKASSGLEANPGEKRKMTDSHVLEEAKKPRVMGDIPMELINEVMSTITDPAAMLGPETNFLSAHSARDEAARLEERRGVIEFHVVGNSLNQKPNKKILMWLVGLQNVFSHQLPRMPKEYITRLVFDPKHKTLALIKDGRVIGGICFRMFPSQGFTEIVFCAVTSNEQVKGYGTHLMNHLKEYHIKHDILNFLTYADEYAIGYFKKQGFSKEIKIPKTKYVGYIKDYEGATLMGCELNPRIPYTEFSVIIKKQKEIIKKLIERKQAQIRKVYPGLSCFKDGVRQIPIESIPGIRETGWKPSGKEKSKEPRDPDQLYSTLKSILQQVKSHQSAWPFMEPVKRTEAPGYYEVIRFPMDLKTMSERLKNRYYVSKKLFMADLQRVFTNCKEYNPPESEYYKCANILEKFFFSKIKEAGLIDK
UniProt O96017: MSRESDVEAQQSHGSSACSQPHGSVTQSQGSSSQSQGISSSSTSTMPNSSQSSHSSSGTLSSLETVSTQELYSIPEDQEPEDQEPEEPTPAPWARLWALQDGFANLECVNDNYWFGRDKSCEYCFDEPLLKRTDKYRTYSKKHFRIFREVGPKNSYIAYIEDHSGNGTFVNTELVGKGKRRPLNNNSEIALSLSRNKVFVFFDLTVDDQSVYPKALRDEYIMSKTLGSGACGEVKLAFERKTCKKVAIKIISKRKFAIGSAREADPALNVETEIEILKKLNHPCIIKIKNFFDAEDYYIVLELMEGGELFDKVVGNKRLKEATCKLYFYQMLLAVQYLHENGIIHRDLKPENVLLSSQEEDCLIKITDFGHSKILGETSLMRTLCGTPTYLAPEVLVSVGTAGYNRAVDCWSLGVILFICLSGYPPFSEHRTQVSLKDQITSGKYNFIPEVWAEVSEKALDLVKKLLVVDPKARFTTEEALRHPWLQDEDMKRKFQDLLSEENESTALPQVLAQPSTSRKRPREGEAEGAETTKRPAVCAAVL
kinase-dead hCds1 mutant fused to V5 (O96017, form named): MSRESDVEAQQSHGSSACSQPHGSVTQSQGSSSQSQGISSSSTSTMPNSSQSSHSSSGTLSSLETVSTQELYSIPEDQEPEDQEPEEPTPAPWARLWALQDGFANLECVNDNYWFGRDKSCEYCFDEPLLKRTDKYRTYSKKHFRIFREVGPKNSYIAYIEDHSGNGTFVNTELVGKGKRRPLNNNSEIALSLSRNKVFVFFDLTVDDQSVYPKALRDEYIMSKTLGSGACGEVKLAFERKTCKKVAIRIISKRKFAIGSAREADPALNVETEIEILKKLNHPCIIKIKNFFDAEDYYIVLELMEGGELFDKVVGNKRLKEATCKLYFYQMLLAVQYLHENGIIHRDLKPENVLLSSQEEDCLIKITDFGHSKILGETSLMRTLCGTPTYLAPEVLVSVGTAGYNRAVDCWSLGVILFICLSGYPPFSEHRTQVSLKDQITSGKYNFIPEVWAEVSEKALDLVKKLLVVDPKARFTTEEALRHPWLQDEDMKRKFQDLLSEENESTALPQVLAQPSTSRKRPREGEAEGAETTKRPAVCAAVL

binding [1]: binds | binding [2]: binds | binding [3]: binds | binding [4]: binds
Substance: PCAF linked to the epitope tag FLAG (from UniProt Q92831 1-832) (enzyme)

binding [5]: binds | binding [6]: binds
Substance: hCds1 fused to the epitope tag V5 (from UniProt O96017 1-543) (enzyme)

binding [7]: binds | binding [8]: binds | binding [9]: binds | binding [10]: binds
Substance: kinase-dead hCds1 mutant fused to V5 (from UniProt O96017 1-543) (enzyme)

— US20020102248A1
